Laboratory results: article PMC6156755, “Using Human Plasma as an Assay Medium in Caco-2 Studies Improves Mass Balance for Lipophilic Compounds” (Pharmaceutical Research, 2018)

Legend:
[1] = Human plasma protein binding (ultracentrifugation or rapid equilibrium dialysis); format: in vitro ADME; conditions: pH 7.4; neat human plasma, 37°C, concentration comparable to Caco-2 assay; read-out: fu (fraction unbound in plasma)
Description: Binding was assessed using one of two methods: ultracentrifugation ([31]) using neat human plasma or rapid equilibrium dialysis (RED) using either neat or diluted plasma. […] To allow analysis with a single calibration curve, the total plasma and protein-free supernatant samples were ‘matrix-matched’ by taking aliquots of protein-free supernatant samples and adding to fresh tubes containing an equal volume of blank plasma, or taking aliquots of the total plasma samples and adding to fresh tubes containing an equal volume of Dulbecco’s phosphate-buffered saline (DPBS). […]
For the more lipophilic compounds with potential for very high binding, the RED method was used with diluted plasma to increase the chance of detecting concentrations in the dialysate samples. […] The binding in neat plasma was then calculated by correcting for the dilution as described below.
For binding measurements in neat plasma by ultracentrifugation, the fraction unbound (fu) was calculated from the ratio of the average unbound concentration in protein free supernate (Cunbound) to the average total concentration in non-centrifuged plasma (Ctotal). The standard deviation (SD) for the fu value was calculated using the propagation of errors approach as described previously ([33]). […]
For RED binding assessments using 10% plasma, the fu − diluted for individual dialysis units was calculated in the same way as described above.

in vitro = conditions: human, Caco-2, pH 7.4, Papp A-B
[2] = Caco-2 permeability assay with pH 7.4 buffer or human plasma in both chambers; conditions: human, Caco-2, pH 7.4, Papp A-B, buffer pH 7.4 in both chambers
Caco-2 cell monolayer [3] = test: as above; conditions: both directions (where assessed) and both media
Caco-2 cell monolayer [4] = conditions: human, Caco-2, pH 7.4

| fraction unbound [1] | Papp A→B (in vitro) | Papp A→B [2] | Mass balance (Caco-2 cell monolayer [3]) | Increase in Papp using plasma compared to buffer (Caco-2 cell monolayer [4]) | Structure (SMILES) |
| --- | --- | --- | --- | --- | --- |
| 0.77 | 1.1 ± 0.1 ×10⁻⁶ cm/s | 0.39 ± 0.051 ×10⁻⁶ cm/s | > 80% | – | CC(C)NCC(O)COc1ccc(CC(N)=O)cc1 (centres unmarked) [Atenolol, atenolol] |
| 0.018 | 130 ± 36 ×10⁻⁶ cm/s | 40 ± 7 ×10⁻⁶ cm/s | – | 2-3 fold | COc1ccc2cc([C@H](C)C(=O)O)ccc2c1 [Naproxen, naproxen] |
